These are yes or no findings as the source states them, for the method shown. Binding seen in cells or lysates may run through a third protein. A yes stands for co-enrichment or nearness to the bait. Other partners may have been found.
Molecular target: affinity-tagged vIRF-1 of the mass spectrometry analysis (human herpesvirus 8 (HHV-8)) (UniProt F5HF68)
Test: affinity purification with mass spectrometry

Sequences of proteins named here, by UniProt entry; tags and fusion partners are left off.
UniProt F5HF68: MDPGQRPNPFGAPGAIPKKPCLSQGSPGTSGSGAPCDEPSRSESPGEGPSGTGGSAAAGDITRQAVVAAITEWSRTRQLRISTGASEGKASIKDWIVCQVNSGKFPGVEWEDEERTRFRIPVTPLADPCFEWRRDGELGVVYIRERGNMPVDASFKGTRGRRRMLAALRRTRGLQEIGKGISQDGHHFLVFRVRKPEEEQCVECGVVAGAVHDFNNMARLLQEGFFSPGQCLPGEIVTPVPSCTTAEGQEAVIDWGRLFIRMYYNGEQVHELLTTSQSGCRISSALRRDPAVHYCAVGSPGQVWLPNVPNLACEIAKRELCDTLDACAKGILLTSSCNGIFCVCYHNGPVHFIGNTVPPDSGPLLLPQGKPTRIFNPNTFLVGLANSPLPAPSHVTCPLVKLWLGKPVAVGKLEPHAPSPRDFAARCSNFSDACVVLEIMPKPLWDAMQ
UniProt P40763: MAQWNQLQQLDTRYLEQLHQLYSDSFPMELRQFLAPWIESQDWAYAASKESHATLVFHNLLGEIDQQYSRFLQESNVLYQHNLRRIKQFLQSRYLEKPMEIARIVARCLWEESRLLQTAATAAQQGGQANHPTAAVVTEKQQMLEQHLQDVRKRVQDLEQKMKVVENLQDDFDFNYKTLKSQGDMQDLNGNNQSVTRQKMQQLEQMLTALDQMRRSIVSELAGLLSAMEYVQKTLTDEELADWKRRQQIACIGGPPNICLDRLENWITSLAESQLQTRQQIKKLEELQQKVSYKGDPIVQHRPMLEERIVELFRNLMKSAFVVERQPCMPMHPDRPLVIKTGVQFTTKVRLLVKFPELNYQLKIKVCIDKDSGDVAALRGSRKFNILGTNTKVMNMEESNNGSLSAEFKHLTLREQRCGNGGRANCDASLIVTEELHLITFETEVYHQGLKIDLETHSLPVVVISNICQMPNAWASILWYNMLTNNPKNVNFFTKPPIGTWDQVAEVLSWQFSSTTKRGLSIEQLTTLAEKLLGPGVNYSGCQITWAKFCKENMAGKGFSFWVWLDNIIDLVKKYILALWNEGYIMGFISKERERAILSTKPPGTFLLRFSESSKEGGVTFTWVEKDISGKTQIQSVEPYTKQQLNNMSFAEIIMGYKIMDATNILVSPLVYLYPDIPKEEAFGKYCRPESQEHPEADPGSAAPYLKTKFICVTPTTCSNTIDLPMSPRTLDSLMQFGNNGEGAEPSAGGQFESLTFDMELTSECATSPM

For “cellular STAT3 found in the mass spectrometry analysis (from UniProt P40763 1-770)”, the binding was “binds”.

Source: PMC10695398
